Measured values taken from the supplement of paper PMC9233669.
Variants at the background level are over-represented here.

Key:
biotinyl-Ile-oxazolone = assay: self-aminoacylation, catalytic enhancement (BIO) (fold over background); higher = more active; k-Seq, kA / k0A0; sequences stand for … in GGGAAUGGAUCCACAUCUACGAAUUC…UUCACUGCAGACUUGACGAAGCUG
Procedure, shortened: (§1)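 Catalytic enhancement equals the median kA over the uncatalyzed rate, the latter read from the low-activity peak of a bimodal Gaussian fit. Values of kA came from fitting each sequence's fraction reacted to a pseudo-first-order model, with 1000 bootstraps. Reacted RNA was captured with streptavidin and quantified by triplicate qPCR and Illumina sequencing after 90 minutes at room temperature with 2–1250 μM biotinyl-aminoacyl-oxazolone and 0.43 μM mutagenized RNA pools bearing a 21-nt variable region.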

biotinyl-Leu-oxazolone = assay: self-aminoacylation, catalytic enhancement (BLO) (fold over background); higher = more active; k-Seq, kA / k0A0; sequences stand for … in GGGAAUGGAUCCACAUCUACGAAUUC…UUCACUGCAGACUUGACGAAGCUG
Procedure, shortened: as §1

biotinyl-Trp-oxazolone = assay: self-aminoacylation, catalytic enhancement (BWO) (fold over background); higher = more active; k-Seq, kA / k0A0; sequences stand for … in GGGAAUGGAUCCACAUCUACGAAUUC…UUCACUGCAGACUUGACGAAGCUG
Procedure, shortened: as §1

biotinyl-Met-oxazolone = assay: self-aminoacylation, catalytic enhancement (BMO) (fold over background); higher = more active; k-Seq, kA / k0A0; sequences stand for … in GGGAAUGGAUCCACAUCUACGAAUUC…UUCACUGCAGACUUGACGAAGCUG
Procedure, shortened: as §1

biotinyl-Phe-oxazolone = assay: self-aminoacylation, catalytic enhancement (BFO) (fold over background); higher = more active; k-Seq, kA / k0A0; sequences stand for … in GGGAAUGGAUCCACAUCUACGAAUUC…UUCACUGCAGACUUGACGAAGCUG
Procedure, shortened: as §1

biotinyl-Val-oxazolone = assay: self-aminoacylation, catalytic enhancement (BVO) (fold over background); higher = more active; k-Seq, kA / k0A0; sequences stand for … in GGGAAUGGAUCCACAUCUACGAAUUC…UUCACUGCAGACUUGACGAAGCUG
Procedure, shortened: as §1

Sequence | self-aminoacylation (biotinyl-Ile-oxazolone) | self-aminoacylation (biotinyl-Leu-oxazolone) | self-aminoacylation (biotinyl-Trp-oxazolone) | self-aminoacylation (biotinyl-Met-oxazolone) | self-aminoacylation (biotinyl-Phe-oxazolone) | self-aminoacylation (biotinyl-Val-oxazolone)
AUUCACCUAGGUCAAAGGGUG [Fam2.2 aminoacylation ribozyme variant] | 1.23 | 1.62 | 1.64 | 1.31 | 1.9 | 1.23
AUUCACCUAGGUCAGCGGGAG [Fam2.2 aminoacylation ribozyme variant] | 1.35 | 1.72 | 0.859 | 1.17 | 0.81 | 1.18
AUUCACCUAGGUCAUAGGCUG [Fam2.2 aminoacylation ribozyme variant] | 0.714 | 0.742 | 0.512 | 0.591 | 0.512 | 0.81
AUUCACCUAGGUCAUAGGGCG [Fam2.2 aminoacylation ribozyme variant] | 0.973 | 0.873 | 0.746 | 0.959 | 0.969 | 1.14
AUUCACCUAGGUCAUAGGGGG [Fam2.2 aminoacylation ribozyme variant] | 0.966 | 1.14 | 1.72 | 0.798 | 1.28 | 1.13
AUUCACCUAGGUCAUCGAGCG [Fam2.2 aminoacylation ribozyme variant] | 1.2 | 1.57 | 1.09 | 1.36 | 1.47 | 1.19
AUUCACCUAGGUCAUCGGUCG [Fam2.2 aminoacylation ribozyme variant] | 0.787 | 0.989 | 0.521 | 0.82 | 0.372 | 0.863
AUUCACCUAGGUCAUCGUGUA [Fam2.2 aminoacylation ribozyme variant] | 0.872 | 0.89 | 0.793 | 0.819 | 0.616 | 0.928
AUUCACCUAGGUCAUGAGGUG [Fam2.2 aminoacylation ribozyme variant] | 1.94 | 3.15 | 1.75 | 2.41 | 3.32 | 1.81
AUUCACCUAGGUCAUUGGGCG [Fam2.2 aminoacylation ribozyme variant] | 2.58 | 3.36 | 3.16 | 2.49 | 10.6 | 2.66
AUUCACCUAGGUCGUCAGGUG [Fam2.2 aminoacylation ribozyme variant] | 0.7 | 0.829 | 0.42 | 0.687 | 0.366 | 0.829
AUUCACCUAGGUGAUCGAGUG [Fam2.2 aminoacylation ribozyme variant] | 1.03 | 1.2 | 1.03 | 1.09 | 0.745 | 1.05
AUUCACCUAUGUCAACGGGUG [Fam2.2 aminoacylation ribozyme variant] | 1.83 | 3.35 | 2.52 | 2.83 | 16.8 | 2.01
AUUCACCUAUGUCAUCGGCUG [Fam2.2 aminoacylation ribozyme variant] | 1.38 | 1.26 | 0.681 | 1.21 | 0.644 | 1.3
AUUCACCUAUGUCAUCGGGUC [Fam2.2 aminoacylation ribozyme variant] | 0.898 | 0.797 | 0.822 | 1.02 | 0.551 | 0.916
AUUCACCUCCGUCAUCGGGUG [Fam2.2 aminoacylation ribozyme variant] | 5.62 | 10.8 | 8.32 | 8.59 | 70.3 | 4.91
AUUCACCUUGGUCAUCGGAUG [Fam2.2 aminoacylation ribozyme variant] | 0.768 | 0.714 | 0.477 | 0.633 | 0.466 | 0.845
AUUCACCUUGGUCAUCGGGAG [Fam2.2 aminoacylation ribozyme variant] | 1.07 | 1.09 | 1.27 | 1.05 | 0.73 | 1.05
AUUCACUUAGGUCAUCGGAUG [Fam2.2 aminoacylation ribozyme variant] | 0.701 | 0.579 | 0.528 | 0.766 | 0.46 | 0.714
AUUCAGCCAGGUCAUCGGGUG [Fam2.2 aminoacylation ribozyme variant] | 5.25 | 10.7 | 9.91 | 8.99 | 59.7 | 5.4
AUUCAGCUAGGUCAUCGGGGG [Fam2.2 aminoacylation ribozyme variant] | 3.18 | 3.48 | 2.72 | 2.69 | 16.7 | 2.23
AUUCAUCCAGGUCAUCGGGUG [Fam2.2 aminoacylation ribozyme variant] | 4.96 | 9.76 | 6.96 | 7.87 | 47.8 | 4.75

Sequence | self-aminoacylation (biotinyl-Ile-oxazolone) | self-aminoacylation (biotinyl-Leu-oxazolone) | self-aminoacylation (biotinyl-Trp-oxazolone) | self-aminoacylation (biotinyl-Met-oxazolone) | self-aminoacylation (biotinyl-Phe-oxazolone) | self-aminoacylation (biotinyl-Val-oxazolone)
AUUCAUCUAGGUCAUCGGGGG [Fam2.2 aminoacylation ribozyme variant] | 1.82 | 2.31 | 2.14 | 2.13 | 5.32 | 1.9
AUUCCCCUAGGUCAUAGGGUG [Fam2.2 aminoacylation ribozyme variant] | 3.38 | 6.57 | 4.78 | 4.99 | 17.1 | 3.08
AUUCCCCUAGGUCAUCGGGAG [Fam2.2 aminoacylation ribozyme variant] | 6.89 | 9.02 | 8.9 | 8.27 | 19.4 | 6.76
AUUCCCCUGGUCAUCUAGUGA [Fam2.1 aminoacylation ribozyme variant] | 5.92 | 11.4 | 13 | 11.9 | 85.5 | 6.23
AUUCCCCUGGUCAUUGAGUGA [Fam2.1 aminoacylation ribozyme variant] | 4.73 | 8.32 | 11.7 | 8.79 | 64.3 | 4.5
AUUCCCCUGGUCGUCGAGUGA [Fam2.1 aminoacylation ribozyme variant] | 1.48 | 1.71 | 1.52 | 1.42 | 6.18 | 1.33
AUUCGCCUAGGUCAUCGUGUG [Fam2.2 aminoacylation ribozyme variant] | 1.04 | 1.35 | 0.823 | 1.45 | 3.31 | 1.05
AUUCUCCUAGGUCCUCGGGUG [Fam2.2 aminoacylation ribozyme variant] | 4.72 | 10.5 | 7.62 | 6.44 | 54.1 | 4.54
AUUGACCUAGGUCACCGGGUG [Fam2.2 aminoacylation ribozyme variant] | 4.43 | 6.34 | 6.05 | 4.69 | 29.6 | 4.87
AUUGCCAUGGUCAUCGAGUGA [Fam2.1 aminoacylation ribozyme variant] | 4.75 | 10.1 | 11.6 | 9.29 | 53.5 | 4.81
AUUGCCCUGGUCAUCGAGUAA [Fam2.1 aminoacylation ribozyme variant] | 3.56 | 8.75 | 8.07 | 8.54 | 28.4 | 4.02
AUUGCCCUGGUCCUCGAGUGA [Fam2.1 aminoacylation ribozyme variant] | 1.94 | 3.42 | 3.66 | 3.5 | 23.4 | 2.05
AUUUACCUAGGUUAUCGGGUG [Fam2.2 aminoacylation ribozyme variant] | 2.29 | 3.48 | 3.72 | 3.44 | 23.2 | 2.4
AUUUACUUAGGUCAUCGGGUG [Fam2.2 aminoacylation ribozyme variant] | 2.91 | 5.78 | 4.45 | 4.85 | 32.2 | 3.18
AUUUCCCUGGUCAACGAGUGA [Fam2.1 aminoacylation ribozyme variant] | 3.9 | 6.99 | 8.23 | 6.93 | 42.4 | 3.91
AUUUCCCUGGUCAUCGACUGA [Fam2.1 aminoacylation ribozyme variant] | 1.09 | 0.989 | 0.625 | 0.966 | 0.739 | 1.1
AUUUCCCUGGUUAUCGAGUGA [Fam2.1 aminoacylation ribozyme variant] | 4.12 | 8.65 | 10.9 | 9.01 | 58.2 | 4.39
AUUUCCCUUGUCAUCGAGUGA [Fam2.1 aminoacylation ribozyme variant] | 3.62 | 7.73 | 8.99 | 7.14 | 46 | 4.17
CAACACUUCAAGCAAUCGUUC [Fam1B.1 aminoacylation ribozyme variant] | 0.845 | 0.648 | 0.748 | 0.81 | 1.47 | 0.828
CAACACUUCAAGCAAUGGGUC [Fam1B.1 aminoacylation ribozyme variant] | 0.858 | 0.882 | 0.833 | 0.834 | 0.677 | 0.664
CAACACUUCAAGCAGUCGGUC [Fam1B.1 aminoacylation ribozyme variant] | 0.986 | 0.979 | 0.839 | 0.901 | 0.982 | 1.04
